# Entries after “also recorded” stand apart in the source; their conditions may differ. At least one peptide structure holds a part that was inferred or is arguable (an end, a ring closure or a residue). Some compounds share one wording; it may come from a single statement. Where no end group is shown, it is not given here.
# Key:
# [1] = test system: human umbilical vein endothelial cells (HUVEC) co-cultured with primary human diploid fibroblasts; experiment: Angiosys co-culture angiogenesis assay (HUVEC tubule formation); type: cell-based; conditions: for Mean Tubule Length (pixels): 14 days
# Text: The recently developed Angiosys™ co-culture angiogenesis assay (TCS Cell Works, Botolph Claydon, UK) was employed to examine the biological activity of the fibrin E analogue peptides WTM33, WTM34, WTM35, WTM36, and WTM37. This assay involves the co-culturing of human umbilical vein endothelial cells (HUVEC) with primary human diploid fibroblasts. In control cultures treated by the standard method as supplied by the manufacturers, both cell populations increase in number to form a confluent fibroblast monolayer on top off which the HUVEC cells form into corded structures. These structures thicken and anastomose by day 14 to form an intricate network of microvessel-like structures that resemble a capillary bed. It has previously been shown that the control conditions in this assay result in an intermediate degree of formation of these microtubules that can be enhanced by angiogenic effectors such as vascular endothelial growth factor (VEGF), or reduced by anti-angiogenic agents such as suramin (33).
# The Angiosys™ assay was used as directed by the manufacturer. Briefly, HUVEC and human diploid fibroblasts were admixed, seeded into 24-well culture plates and incubated for 14 days in endothelial cell culture medium (ECM, TCS Cell Works). This medium, which was replaced with fresh every second day, contains angiogenic factors such as VEGF. Fibrin E analogue peptides were dissolved in this same medium to the indicated concentrations and applied to the cells in the same way as control medium. After the incubation period of 14 days, medium was removed and the cells were fixed in situ at room temperature in 70% ethanol and viewed with an MRC 600 confocal microscope (Bio-Rad). Images were captured using a JVC videocamera mounted on the microscope and coupled to a Neotech Image Grabber/PC.
# The table illustrates the […] effects of peptide WTM 35 and 36 (0.19-0.75 μg/ml) on HUVEC tubule formation in the Angiosys™ co-culture angiogenesis assay, compared with an untreated control. The table show the average tubule length obtained using an image analysis package for the PC which transforms the visual data into pixels: […]
# [2] = test system: FDP induced cell proliferation in the chick CAM; experiment: CAM cell proliferation assay in the presence of FDP; type: in vivo
# Protocol: (§1) Cell proliferation was measured using the chick chorioallantoic membrane (CAM) model as described previously (4, 29, 30).
# (§2) Briefly, on day zero, fertile hens' eggs, are placed in an egg incubator 37.5° C. with pointed ends facing downwards. On day 3, using a 2 ml syringe with a 21G needle, 2 ml of albumen is removed and the eggs returned to the incubator. On day 4, each egg is punctured by a needle at the blunt end into the air space. A square of shell is then removed, causing the egg contents to drop into the space left by collapse of the air space at the end of the egg and the withdrawal of albumen. The volume of the space above the dropped CAM is approximately 7 ml. The square opening in the shell is covered with Sellotape (RTM). The eggs then have to be kept level in the incubator without tilting. On day 10, the surviving eggs are organised into groups of preferably no less than 10. Test and control samples are prepared and each egg receives 0.3 ml of sample injected through the Sellotape (RTM) onto the upper surface of the CAM.
# (§3) The technique of removal of each CAM is simple but crucial to the rationale of achieving results expressed as total DPM per CAM. By 20 min, methyl-[^3H]thymidine is incorporated only into the CAM which has been directly exposed. Beyond 30 min, [^3H]thymidine becomes detectable in adjacent CAM that is applied to the shell, via uptake from the bloodstream. Each CAM is removed by holding the egg in the palm of one hand, Sellotape window face down, and piercing the side with pointed scissors well above the level of the dropped CAM. Scissors are used to cut round the shell, and the residual yolk and embryo tipped out into a disposal container once the umbilical vessels connecting the embryo to the CAM are cut. Each CAM is rinsed briefly in saline, blotted dry and placed in a 20 ml Sterilin (RTM) plastic disposable container in 5 ml of distilled water. On day 11 after 18 h, which is optimal for wound extracts and fibrin degradation products, the assay for measurement of DNA synthesis is performed. Methyl-[^3H]thymidine is applied onto the CAM surface using 0.5 ml of 2 μCi/ml normal saline per egg. (Methyl-[^3H]thymidine is used to avoid recycling of thymidine). After 20 min the eggs are removed to a radioactive type bench and all eggs are rapidly injected through the Sellotape window with 5 ml of ice-cold normal saline to halt metabolism.
# (§4) On Day 12, each CAM is homogenised briefly in the 5 ml of H2O using for example a homogeniser with a suitable head. 5 ml of 10% trichloroacetic acid (TCA) is added to each, vortexed and centrifuged at approximately 1,000 g for about 8 min×3. The precipitate is resuspended finally in 2.5 ml of H2O. Scintillation vials are filled with 5 ml of thixotropic scintillation fluid and vortexed and the contents immediately poured into a vial. Each vial is vortexed until the contents become a gel. To reduce chemiluminescence, the vials are stored at 4° C. overnight in the dark. The tissue debris becomes efficiently dispersed throughout the thixotropic scintillant as a fine emulsion suitable for counting. Nevertheless there is considerable loss of efficiency due to colour, salt and protein quenching inherent to the nature of the tissue, and necessitates accurate quench correction curves created by, for example, the LKB “Hat-trick” method that can be used to check a real CAM sample. This method copes with the relatively large amount of proteinaceous material derived from each CAM.
# (§5) By applying this assay to the whole “dropped” area of CAM exposed to test or control substances, the results can be expressed per CAM, independent of changes that may be induced in weight and protein content due to, for example, oedema, and of changes in cellularity due to inflammatory cell influx.
# (§6) The assay used is based on quantitative measurement of DNA synthesis in the CAM after exposure to control and test substances 18 h after application in liquid form to the whole “dropped” area of each CAM (4,29). […]
# [3] = test system: chick chorioallantoic membrane (CAM); experiment: CAM cell proliferation assay (DNA synthesis, methyl-[3H]thymidine), substance alone; type: in vivo; conditions: for effect on cell proliferation: concentrations at which FDPs no longer stimulate cell proliferation
# Protocol: as §1, §2, §3, §4, §5, §6
# [4] = test system: Lewis Lung Carcinoma (LLC) cells; experiment: Pulmonary tumour metastasis model (Lewis lung carcinoma); type: in vivo, C57BL/6J mice; conditions: for effect in metastasis model (in words): lung weight / metastatic episodes
# Protocol: In the metastasis model, Lewis Lung Carcinoma (LLC) cells are injected into the tail of the mouse, lodge in the lungs, and grow and spread rapidly.
# In more detail, groups of five C57BL/6J mice were injected with 5×10^4 LLC cells via the tail vein and were subsequently treated intraperitoneally with various concentrations of tested peptides or equal volume of diluent control. The treatment was initiated three days after tumor cell inoculation. Two weeks after the intravenous injection of tumor cells, the mice were sacrificed and necropsied. The lungs were removed, weighed and compared to untreated controls, and to normal lungs without tumors. Results were analyzed for statistical significance using the Student's t-test.
# [5] = test system: Lewis lung carcinoma cells; experiment: Primary tumour model (Lewis lung carcinoma); type: in vivo, C57BL/6J mice
# [6] = test system: chick chorioallantoic membrane (CAM) vessels; experiment: Vessel counting assay using CAM model; type: in vivo
# Protocol: The CAM were prepared as for the tritiated thymidine assay.
# Dulbecco's phosphate buffered saline was used as a control. A range of concentrations of peptides WTM33, WTM34, and WTM35 (1.875, 3.75, 7.5, 15, 30, and 60 μg/ml) were added to the CAM. Inoculations of 0.2 ml of the peptide were carried out on days 10,11 and 12 of CAM development, and then fixed using formalin on day 15.
# After fixing in formalin for 2 days the CAM were excised and spoke like sections cut from the centre of the CAM to the outer edge. These were embedded in wax and processed on to slides with H&E staining to visualise the vessels in the section. The numbers of vessels per field of vision, over 10 fields were counted using an Olympus microscope. [Eyepieces set at 58, using ×40 (0.65) lens, from the graticule diameter of field is 0.45 mm, and therefore 1 mm is equal to 2.22 fields of view.] The average number of vessels/field of view×2.22 gives number of vessels/mm of CAM.
# [7] = peptide in the presence of FDPs (5 μM) / fibrin
# [8] = substance alone, across the range of concentrations tested
# [9] = substance alone, high doses / higher concentrations
# [10] = across the range of / all concentrations
# [11] = higher dose range / very high doses
sequence,measurement,setting,value
"SSSSFQYMYLL [WTM37, SSSSFQYMYLL]",HUVEC tubule formation (in words),[1]; 12 μg/ml,a degree of inhibition of HUVEC tubule formation
same,HUVEC tubule formation (in words),[1]; very high / higher doses,magnitude of this effect was increased
same,HUVEC tubule formation (in words),"[1]; very high / higher doses, listed as Peptide 37",inhibition of tubule formation
same,effect on FDP-induced stimulation of cell proliferation,"[2]; low / lower concentrations of peptide, 5 μM FDPs",may even inhibit the stimulatory effect
same,effect on FDP-induced stimulation of cell proliferation,[2]; peptide at 3 micromoles with FDP,suppression of the FDP induced activity
same,effect on FDP-induced stimulation of cell proliferation,[2]; [7],did not alter it at any other concentration
same,effect on FDP-induced stimulation of cell proliferation,"[2]; peptide in the presence of FDPs (5 μM) / fibrin, listed as WTM 37",does not enhance FDP-induced stimulation of cell proliferation
same,effect on cell proliferation relative to control,"[3]; peptide alone, 15 μmoles",inhibitory effect
same,effect on cell proliferation relative to control,[3]; [8],little inherent stimulatory effect; also recorded: only a slight stimulatory effect
same,effect on cell proliferation relative to control,[3]; [9],no increase in stimulatory activity; also recorded: slight inhibition of cell proliferation
"SVDELNNNVEAVSQT [WTM36, SVDELNNNVEAVSQT]",HUVEC tubule formation (in words),[1]; 0.18 μg/ml,stimulation of vessels' growth; also recorded: stimulate vessel growth
same,Mean Tubule Length (pixels),[1]; 0.19 μg/ml,11253 pixels
same,Mean Tubule Length (pixels),[1]; 0.38 μg/ml,1010 pixels
same,Mean Tubule Length (pixels),[1]; 0.75 μg/ml,9990 pixels
same,HUVEC tubule formation (in words),"[1]; 0.75, 0.38 and 0.19 μg/ml",stimulate HUVEC tubule formation
same,HUVEC tubule formation (in words),[1]; [10],may be a biphasic reaction
same,HUVEC tubule formation (in words),[1]; low doses / low concentration,significant stimulation of tubule formation
same,effect on FDP-induced stimulation of cell proliferation,"[2]; highest concentration tested (18.53 μM), 5 μM FDPs",stimulatory effect recovering
same,effect on FDP-induced stimulation of cell proliferation,"[2]; peptide at 12.348 μM, 5 μM FDPs",some inhibitory effect
same,effect on FDP-induced stimulation of cell proliferation,[2]; [7],additive to that of FDP
same,effect on cell proliferation,[3],cell proliferative effects
same,stimulatory effect on the CAM,[3]; peptide alone,up to 50%
same,dose at which stimulation reduces to control level,"[3]; peptide alone, biphasic reaction",~8 µmol
same,effect on cell proliferation relative to control,[3]; [9],significant stimulation
same,effect in metastasis model (in words),[4],increase in lung weight
same,effect in metastasis model (in words),[4]; listed as 36,results consistent with a pro-angiogenic
"SLRPAPPPISGGGYR [WTM33, SLRPAPPPISGGGYR]",HUVEC tubule formation (in words),"[1]; 0.18, 3, 6, 12 and 100 μg/ml",clearly greatly reduced
same,HUVEC tubule formation (in words),"[1]; 0.75, 0.38 and 0.19 μg/ml",inhibit HUVEC tubule formation; also recorded: complete inhibition - no tubule
same,HUVEC tubule formation (in words),[1]; down to concentrations of 2 micromoles/ml,total inhibition of tubule formation
same,HUVEC tubule formation (in words),[1]; lowest applied doses of 3 μg/ml,markedly reduced the formation of tubules
same,decrease in the size of the tumour,"[5]; 500 microgrammes/day, daily i.p.",> 30%
same,decrease in the size of the tumour,[5]; 500 microgrammes/ml,> 30%
same,reduction of FDP induced cell proliferation,[2]; CAM model,up to 25%
same,effect on number of vessels per mm of CAM,[6]; [11],can inhibit vessel formation in the CAM
same,reduction in vessel number,"[6]; higher doses, p<0.05",50%
same,stimulation of CAM vessel number,[6]; low doses,~50%
same,effect on cell proliferation,[3],cell proliferative effects
same,maximum stimulation of cell proliferation,"[3]; peptide alone, dose of 14 micromoles",50%
same,effect on cell proliferation relative to control,"[3]; peptide alone, very low concentrations, for which FDPs show no activity",stimulatory activity
same,effect on cell proliferation relative to control,[3]; [9],high doses may be inhibitory
same,effect in metastasis model (in words),[4],no significant reduction in metastatic episodes
"QLQEALLQQERPIRN [WTM35, QLQEALLQQERPIRN]",HUVEC tubule formation (in words),[1]; 0.18 μg/ml,stimulate vessel growth
same,Mean Tubule Length (pixels),[1]; 0.19 μg/ml,11330 pixels
same,Mean Tubule Length (pixels),[1]; 0.38 μg/ml,10929 pixels
same,Mean Tubule Length (pixels),[1]; 0.75 μg/ml,10879 pixels
same,HUVEC tubule formation (in words),"[1]; 0.75, 0.38 and 0.19 μg/ml",stimulate HUVEC tubule formation
same,HUVEC tubule formation (in words),[1]; [10],stimulatory
same,HUVEC tubule formation (in words),[1]; low doses / low concentration,stimulation of tubule formation
same,HUVEC tubule formation (in words),[1]; very high / higher doses,inhibition only at very high doses
same,effect on FDP-induced stimulation of cell proliferation,[2]; [7],additive to that of fibrin
same,effect on number of vessels per mm of CAM,[6]; across the range of concentrations tested (1.875-60 μg/ml),increase in vessel number; also recorded: increased number of vessels per mm of CAM
same,effect on number of vessels per mm of CAM,[6]; [11],reducing to control level
same,effect on cell proliferation,[3],cell proliferative effects
same,effect on cell proliferation relative to control,[3]; [8],generally stimulatory effect
same,effect on cell proliferation relative to control,[3]; [9],further cell proliferative effect
same,increase in the weight of lungs,"[4]; intraperitoneal, two weeks after i.v. LLC cells",approximately 20%
same,effect in metastasis model (in words),[4],results consistent with a pro-angiogenic
